## Primary screen of a compound library

The values are deposited in ChEMBL (CHEMBL3988442, “University of Dundee, Small-Polar-MMV Screening Library” (2021)).

Results are given as percent effect. The controls that fix the scale are not given in the record; negative values are as filed. This is an unselected part of the compounds tested.

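Whole-parasite assay of Trypanosoma brucei over 72 hours; the read-out is not stated. Concentration: 30 µM. Higher reads as stronger inhibition (inferred: compounds with an IC50 in retests scored well above the rest). Values scatter widely below zero; nearly all retest evidence comes from the higher of the two concentrations used. Of about 64,000 compounds tested this way, about 940 (1.5%) reached 50% or more in at least one test.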

With Cc1cc(-n2nc(C3CC3)nc2-c2csnn2)ccn1 the screen gave 12.97%. Result for Cc1ncsc1C(=O)N1CC(C)Sc2ccccc21 (stereo not given) was -7.863%. Result for COCCN(C)Cc1cn(C)nc1-c1ccc2c(c1)OCCO2 was -16.64%. Result for C[C@@H]1CN(C2(C(=O)N3CCOCC3)Cc3ccccc3C2)C[C@H](C)O1 was 17.4%.

With [H][C@@]12CCCO[C@]1([H])[C@H](OCC1CCOCC1)CN2C(=O)c1ccnnc1 the screen gave 19.5%. For CC(Cn1cccn1)NC(=O)NCCCN1CCc2ccccc2C1 (stereo not given) the result was -58.74%. O=C(O)CC(O)(CC(=O)O)C(=O)O.OC1CCCN(Cc2ccnc(-c3cccnc3)n2)C1 (stereo not given) read 2.18%. Result for CCN(C(=O)NCc1cccnc1N(C)C)C(C)c1cccnc1 (stereo not given) was -17.66%.

For Cl.NC(=O)COc1ccc(CNCc2cc(F)cc(F)c2)cc1 the result was -10.72%. Result for Cc1nc(C2CCCN(C(=O)CO)C2)cc(N2CCOCC2)n1 (stereo not given) was 48.31%. With CCc1ncc(C(=O)NCCn2c(C)cc(C)nc2=O)cn1 the screen gave -7.402%. For CC(=O)N[C@H]1CCN(C(=O)c2cc(Cn3cnc4ccccc43)[nH]n2)C1 the result was -58.75%.

For CC(C)CC(C#N)NC(=O)c1ccc(Oc2cccnc2)cc1 (stereo not given) the result was 3.172%. Result for N#Cc1cccc(S(=O)(=O)N2CCCCC2CCN2CCCC2=O)c1 (stereo not given) was 15.33%. CN(C)C(=O)COCC1CN(Cc2cccs2)Cc2ncn(C)c21.O=C(O)C(F)(F)F.O=C(O)C(F)(F)F (stereo not given) read -69.14%. CCn1c(C2CCCN(C(=O)C(C)(C)OC)C2)nn(CCN(C)C)c1=O (stereo not given) read -8.841%.

Cn1ccnc1CN1C[C@@H](F)[C@@H](OCc2nc3cnccc3[nH]2)C1 gave -36.34%. For Cc1nn(C)c(C)c1CN1CCCC1c1nccc(CN(C)C)n1 (stereo not given) the result was -1.575%. With Cc1noc(C)c1CNC(=O)N1CCC(NS(C)(=O)=O)CC1 the screen gave -45.48%. Result for CC(=O)NC1CCCN(C(=O)Nc2cnc3c(cnn3C(C)C)c2)C1 (stereo not given) was 5.953%.

CC(C)N(CC(=O)Nc1cccc(C#N)c1)C1CC1 read -51.17%. With CC(C)n1ncc2c1NC(=O)CC21C(=O)Nc2c(Cl)cc(Br)cc21 (stereo not given) the screen gave -23.46%. CCc1ccc2c(c1)C(CCNC(=O)Cc1cccc(F)c1)C(=O)N2 (stereo not given) gave -4.323%. With COCCCC(=O)NC1(c2cccc(Br)c2)CC1 the screen gave -36.98%.

Result for Cc1ccc(-n2nc(C)c3c(C)cc(OCC(=O)NC(C)C)nc32)cc1 was -6.085%. For Cc1nc(C)n(CCNS(=O)(=O)NCc2ccccc2)n1 the result was 1.007%. With O=c1[nH][nH]cc1-c1ccnc(NCCc2ccc(F)cc2)n1 the screen gave 7.844%. [H][C@@]12CCN(Cc3nc(C)cs3)C[C@@]1([H])O[C@@H](c1ccncn1)C2 read -33.88%.

With CC(C)C(NCc1ccc(Cn2cncn2)cc1)c1ccccc1 (stereo not given) the screen gave -32.23%. CCOCC1CCCN(C(=O)NCc2ccc(-c3ccn[nH]3)cc2)C1 (stereo not given) gave -9.507%. CCCC(NC(=O)c1ccccc1Br)c1nnn[nH]1 (stereo not given) read 5.871%. O=C(O)C(F)(F)F.[H][C@@]12CCN(Cc3ccc(C)o3)[C@@]1([H])CCC(=O)N2 read 6.929%.

With Cc1[nH]nc2ncc(C(=O)N3CCN(CC(C)O)CC3)cc12.Cl (stereo not given) the screen gave -16.82%. For CCNC(=O)CN(CC)C(=O)c1cc(-c2cccc(Cl)c2)no1 the result was -8.283%. Result for Cc1ccc(CN2CCC(CNC(=O)Cn3cncn3)CC2)cc1 was -37.08%. With COc1cccc(F)c1CN1CCC(c2nccc(C)n2)C1 (stereo not given) the screen gave -1.098%.

CCN(CC)C(=O)c1nc2c(s1)CCN(C(=O)CCC(=O)OC)CC2 gave -59.37%. With COCCCN(C)Cc1nc2c(cnn2C)c(=O)[nH]1 the screen gave -1.045%. Result for O=C(c1cc[nH]n1)N1CCc2cc(Br)sc2C1 was -54.35%. N#Cc1ccc(F)c(CNC(=O)NC(CO)c2ccccc2)c1 (stereo not given) gave -51.24%.

Result for Cc1noc(C)c1C(=O)N(C)C(C)c1ccncc1 (stereo not given) was -15.37%. CC(C)(C)c1n[nH]c(C2CN(C(=O)CCC3CC3)CCO2)n1 (stereo not given) read -16.23%. With CCOC(=O)N1CCN(c2nc(NCCCO)c3ccccc3n2)CC1.Cl the screen gave 21.99%. For CCc1ccc(CN(CCN(C)C)Cc2ccc(C)s2)nc1 the result was 20.31%.

Cc1nn(C)c(C)c1CC(=O)N1CCc2nnc(N(C)C)cc2C1 read -1.373%.

The last 2 entries again:

SMILES	Percent Effect
CCc1ccc(CN(CCN(C)C)Cc2ccc(C)s2)nc1	20.31%
Cc1nn(C)c(C)c1CC(=O)N1CCc2nnc(N(C)C)cc2C1	-1.373%